{"source": "paper PMC7250321", "binders": {"B1": {"name": "Flag-tagged ACOX1 protein (acyl-CoA oxidase 1) (enzyme, UniProt Q15067 1-660)", "chain": "MNPDLRRERDSASFNPELLTHILDGSPEKTRRRREIENMILNDPDFQHEDLNFLTRSQRYEVAVRKSAIMVKKMREFGIADPDEIMWFKKLHLVNFVEPVGLNYSMFIPTLLNQGTTAQKEKWLLSSKGLQIIGTYAQTEMGHGTHLRGLETTATYDPETQEFILNSPTVTSIKWWPGGLGKTSNHAIVLAQLITKGKCYGLHAFIVPIREIGTHKPLPGITVGDIGPKFGYDEIDNGYLKMDNHRIPRENMLMKYAQVKPDGTYVKPLSNKLTYGTMVFVRSFLVGEAARALSKACTIAIRYSAVRHQSEIKPGEPEPQILDFQTQQYKLFPLLATAYAFQFVGAYMKETYHRINEGIGQGDLSELPELHALTAGLKAFTSWTANTGIEACRMACGGHGYSHCSGLPNIYVNFTPSCTFEGENTVMMLQTARFLMKSYDQVHSGKLVCGMVSYLNDLPSQRIQPQQVAVWPTMVDINSPESLTEAYKLRAARLVEIAAKNLQKEVIHRKSKEVAWNLTSVDLVRASEAHCHYVVVKLFSEKLLKIQDKAIQAVLRSLCLLYSLYGISQNAGDFLQGSIMTEPQITQVNQRVKELLTLIRSDAVALVDAFDFQDVTLGSVLGRYDGNVYENLFEWAKNSPLNKAEVHESYKHLKSLQSKL"}}, "target": "Flag-tagged ACOX1 protein (acyl-CoA oxidase 1) (human) (UniProt Q15067)", "assay": "co-IP; HEK293T cells co-transfected; IP lysis buffer (0.025 M Tris-HCl, 0.15 M NaCl, 1 mM EDTA, 1% NP-40, 5% glycerol, pH 7.4); IP with anti-Flag or anti-HA or control IgG overnight at 4°C, protein G agarose; Western blot", "note": "Results are given in words; binding and its absence hold for the method and conditions named. Binding seen in cells or lysates may run through a third protein. Some binding calls cover weakened binding; strength is not graded here. Tags and fused reporters may be left off the sequences shown."}
{"binder": "B1", "values": [{"measurement": "binding", "value": "binds"}]}
